Reference: US8450342B2, “Perharidines as CDK inhibitors” (Centre Nationale de la Recherche Scientifique, priority 2008, dated 2013)
Some of these results come from one statement about several compounds together.

Tested on: cell lines
Experiment: Anti-proliferative activities on cell lines, summary
Assay type: cell-based
Settings: relative to (R)-Roscovitine

| SMILES | enhanced anti-proliferative activities as compared to (R)-Roscovitine |
| --- | --- |
| CC[C@H](CO)Nc1cc(NCc2ccc(-c3ccccn3)cc2)c2ncn(C(C)C)c2n1 [(R)-perharidine C] | 20-100 fold |
| CC[C@@H](CO)Nc1cc(NCc2ccc(-c3ccccn3)cc2)c2ncn(C(C)C)c2n1 [(S)-perharidine D, (S)-7-[4-(2-Pyridyl)-benzylaminol]-5-[(2-butyl-1ol)amino]-3-iso-propylimidazo[4,5-b]pyridine] | 20-100 fold |
